Results are given in words; binding and its absence hold for the method and conditions named.
How the values were obtained:
[1] = molecular target: T1, proteinase 3 of human blood neutrophils (human (endogenous in blood neutrophils)) (UniProt P24158); assay: SDS-stable complex formation, immunoblot; AAT species incubated with cell-free supernatant of ionophore A23187-activated neutrophils; SDS-PAGE and anti-PR3 immunoblot; read-out is the 72 kDa AAT:PR3 complex; only the binder purified
T1 sequence: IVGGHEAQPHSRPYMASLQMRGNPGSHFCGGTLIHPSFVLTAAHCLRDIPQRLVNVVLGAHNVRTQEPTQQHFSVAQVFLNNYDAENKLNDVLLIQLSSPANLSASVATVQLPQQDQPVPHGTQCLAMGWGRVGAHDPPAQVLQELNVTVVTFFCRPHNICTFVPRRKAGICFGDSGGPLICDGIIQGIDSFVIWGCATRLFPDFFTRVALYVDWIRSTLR

Chains of the proteins cited; added tags and fusions are not shown. Lines headed by an entry give the natural chain unless they say otherwise; changes in a name come on top. A line that says so, or that is headed by a name, gives the form on record, which may keep a tag or linker.
mutant α1-antitrypsin (A355D/I356P/P357D/M358S) (P01009, form named): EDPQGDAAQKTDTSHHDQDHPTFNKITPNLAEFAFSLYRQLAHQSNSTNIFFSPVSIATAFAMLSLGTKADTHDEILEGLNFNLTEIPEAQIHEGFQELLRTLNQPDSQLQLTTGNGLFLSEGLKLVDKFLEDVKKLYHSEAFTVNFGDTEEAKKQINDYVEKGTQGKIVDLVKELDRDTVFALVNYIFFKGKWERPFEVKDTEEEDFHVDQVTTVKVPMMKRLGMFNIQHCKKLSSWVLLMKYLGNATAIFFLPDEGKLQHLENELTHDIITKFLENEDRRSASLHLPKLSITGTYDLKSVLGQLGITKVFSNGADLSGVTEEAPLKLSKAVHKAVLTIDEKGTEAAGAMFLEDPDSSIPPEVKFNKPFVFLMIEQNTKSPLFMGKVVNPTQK

[2] = molecular target: T2, purified proteinase 3 (human) (UniProt P24158); assay: SDS-stable complex formation, immunoblot; AAT species incubated with purified PR3; SDS-PAGE and anti-PR3 immunoblot; read-out is the 72 kDa AAT:PR3 complex; both purified
T2 sequence: T1 sequence

binding [1]: no binding
binding [2]: no binding
Substance: mutant α1-antitrypsin (A355D/I356P/P357D/M358S) (from UniProt P01009 25-418)

— article PMC9711875
